The list shows a part of the results. Residues, ends and D or L forms follow the SMILES beside them. *: point of attachment. Cbz = O=C(OCc1ccccc1)*
Experiments:
Test in all cases: log2 fold change, soluble protein after heating vs DMSO (PISA); higher = thermal stabilisation; K562 cells, 10 uM, 30 min; active = over 0.2 and 3.5 SD of the protein, either way, in both replicates (recomputed)
[1] = compound: C1COCCN1CCN2C3=CC=CC=C3N=C2NC(=O)C4=CC(=CC=C4)[N+](=O)[O-] [IRAK-1-4 Inhibitor I]
Method in brief: (§1)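 K562 cells at 2×10^6 cells/mL were exposed to 10 μM compound for 30 min, then aliquots were heated for 3 min across 48°C-58°C, pooled, and extracted in PBS containing 0.5% NP-40 at 4°C. The supernatant after 21,000xg for 90 min was taken as soluble protein and measured by TMTpro 16plex LC-MS/MS with channel sums equalised. Thermal stability is reported relative to control samples, with values from duplicates. Fold changes are given on a log2 scale.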

By UniProt entry, the sequences of proteins in these tests, tags left out. Where a name states a change or a piece, a line headed by the entry shows the natural chain unless it says otherwise.
UniProt P13747, whole entry, looked up: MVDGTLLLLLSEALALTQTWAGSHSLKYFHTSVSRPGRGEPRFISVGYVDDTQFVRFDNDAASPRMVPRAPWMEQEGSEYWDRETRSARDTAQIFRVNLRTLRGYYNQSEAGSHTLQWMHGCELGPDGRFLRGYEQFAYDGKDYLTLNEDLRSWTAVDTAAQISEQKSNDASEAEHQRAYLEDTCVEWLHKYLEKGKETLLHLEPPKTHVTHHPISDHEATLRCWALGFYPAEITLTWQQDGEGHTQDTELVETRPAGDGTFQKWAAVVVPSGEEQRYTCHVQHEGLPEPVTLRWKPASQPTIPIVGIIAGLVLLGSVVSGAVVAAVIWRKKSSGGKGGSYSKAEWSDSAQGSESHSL
UniProt Q58FF7, whole entry, looked up: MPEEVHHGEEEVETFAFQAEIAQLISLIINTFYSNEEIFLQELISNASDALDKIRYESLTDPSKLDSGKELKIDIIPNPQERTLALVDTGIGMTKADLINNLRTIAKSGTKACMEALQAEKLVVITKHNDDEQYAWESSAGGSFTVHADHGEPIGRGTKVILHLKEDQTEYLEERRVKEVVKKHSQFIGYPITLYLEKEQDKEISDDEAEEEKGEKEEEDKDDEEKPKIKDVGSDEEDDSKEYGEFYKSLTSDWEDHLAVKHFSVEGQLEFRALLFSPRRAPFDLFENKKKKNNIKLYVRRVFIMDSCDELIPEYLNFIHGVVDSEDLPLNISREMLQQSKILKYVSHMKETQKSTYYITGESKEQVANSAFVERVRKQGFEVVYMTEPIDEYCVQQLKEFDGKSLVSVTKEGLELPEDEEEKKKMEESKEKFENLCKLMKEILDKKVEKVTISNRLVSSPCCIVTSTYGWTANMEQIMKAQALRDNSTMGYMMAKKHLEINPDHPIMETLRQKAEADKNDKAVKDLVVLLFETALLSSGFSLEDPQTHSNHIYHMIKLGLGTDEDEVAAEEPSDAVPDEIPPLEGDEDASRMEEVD
UniProt P11142, whole entry, looked up: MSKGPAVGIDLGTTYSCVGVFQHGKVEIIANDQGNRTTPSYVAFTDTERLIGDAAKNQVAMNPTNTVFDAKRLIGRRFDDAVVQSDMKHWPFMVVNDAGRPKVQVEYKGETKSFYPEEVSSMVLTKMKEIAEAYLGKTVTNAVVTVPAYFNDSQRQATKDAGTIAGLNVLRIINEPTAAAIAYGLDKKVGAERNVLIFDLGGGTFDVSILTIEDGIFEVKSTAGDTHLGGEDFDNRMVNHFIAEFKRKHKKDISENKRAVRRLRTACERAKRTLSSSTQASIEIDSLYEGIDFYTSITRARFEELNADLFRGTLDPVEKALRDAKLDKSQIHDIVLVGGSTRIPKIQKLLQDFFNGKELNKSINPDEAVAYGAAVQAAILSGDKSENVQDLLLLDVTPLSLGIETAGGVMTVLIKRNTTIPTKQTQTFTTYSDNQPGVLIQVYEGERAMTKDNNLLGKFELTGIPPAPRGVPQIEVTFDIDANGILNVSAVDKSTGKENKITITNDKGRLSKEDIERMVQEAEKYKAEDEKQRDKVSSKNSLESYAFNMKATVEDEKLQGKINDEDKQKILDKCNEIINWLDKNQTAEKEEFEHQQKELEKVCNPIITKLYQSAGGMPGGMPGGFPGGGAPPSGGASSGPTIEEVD
UniProt Q9Y241: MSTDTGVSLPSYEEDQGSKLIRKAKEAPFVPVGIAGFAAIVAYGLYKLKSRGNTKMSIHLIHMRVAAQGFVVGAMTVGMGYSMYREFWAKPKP
UniProt P00738: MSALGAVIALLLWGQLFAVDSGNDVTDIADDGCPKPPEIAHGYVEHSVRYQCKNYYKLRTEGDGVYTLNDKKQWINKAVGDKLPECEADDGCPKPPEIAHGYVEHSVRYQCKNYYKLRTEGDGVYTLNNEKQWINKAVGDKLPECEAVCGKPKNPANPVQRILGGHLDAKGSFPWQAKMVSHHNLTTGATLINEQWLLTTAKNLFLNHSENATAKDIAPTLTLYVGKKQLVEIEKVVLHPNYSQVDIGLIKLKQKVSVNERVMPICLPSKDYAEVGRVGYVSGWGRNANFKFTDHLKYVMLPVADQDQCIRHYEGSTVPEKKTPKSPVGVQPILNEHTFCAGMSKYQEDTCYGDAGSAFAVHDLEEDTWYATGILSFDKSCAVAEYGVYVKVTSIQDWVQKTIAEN
UniProt P54868: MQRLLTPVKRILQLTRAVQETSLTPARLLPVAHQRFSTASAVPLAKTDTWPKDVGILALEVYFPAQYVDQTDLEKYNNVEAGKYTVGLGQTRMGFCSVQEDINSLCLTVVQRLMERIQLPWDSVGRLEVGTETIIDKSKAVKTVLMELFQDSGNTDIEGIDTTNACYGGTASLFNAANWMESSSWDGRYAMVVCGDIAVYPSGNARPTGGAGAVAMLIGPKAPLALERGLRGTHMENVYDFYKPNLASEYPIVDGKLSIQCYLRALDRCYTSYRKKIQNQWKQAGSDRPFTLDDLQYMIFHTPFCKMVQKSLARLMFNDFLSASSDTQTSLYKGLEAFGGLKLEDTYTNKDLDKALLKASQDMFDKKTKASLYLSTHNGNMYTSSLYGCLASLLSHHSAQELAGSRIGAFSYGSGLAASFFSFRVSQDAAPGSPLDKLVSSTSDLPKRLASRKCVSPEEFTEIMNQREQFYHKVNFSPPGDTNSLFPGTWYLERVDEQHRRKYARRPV
UniProt P30939: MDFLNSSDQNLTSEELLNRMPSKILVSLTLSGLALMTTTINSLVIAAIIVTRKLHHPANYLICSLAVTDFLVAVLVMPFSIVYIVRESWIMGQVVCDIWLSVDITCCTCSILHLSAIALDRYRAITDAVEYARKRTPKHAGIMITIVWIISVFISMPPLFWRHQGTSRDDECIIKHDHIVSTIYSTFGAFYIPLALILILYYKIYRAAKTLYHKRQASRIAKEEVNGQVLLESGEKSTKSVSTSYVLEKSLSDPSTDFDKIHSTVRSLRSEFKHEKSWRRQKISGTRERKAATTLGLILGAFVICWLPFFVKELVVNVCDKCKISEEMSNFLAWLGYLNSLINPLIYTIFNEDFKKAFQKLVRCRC
UniProt P50135: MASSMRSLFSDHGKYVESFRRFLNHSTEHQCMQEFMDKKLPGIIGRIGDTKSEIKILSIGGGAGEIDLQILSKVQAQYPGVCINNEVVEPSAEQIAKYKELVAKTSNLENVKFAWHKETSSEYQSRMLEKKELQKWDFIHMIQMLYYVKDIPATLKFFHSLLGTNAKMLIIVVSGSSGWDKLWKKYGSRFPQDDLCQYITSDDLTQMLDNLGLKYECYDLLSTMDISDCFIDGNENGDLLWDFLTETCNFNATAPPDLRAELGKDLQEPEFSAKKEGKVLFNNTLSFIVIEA
UniProt Q00839, whole entry, looked up: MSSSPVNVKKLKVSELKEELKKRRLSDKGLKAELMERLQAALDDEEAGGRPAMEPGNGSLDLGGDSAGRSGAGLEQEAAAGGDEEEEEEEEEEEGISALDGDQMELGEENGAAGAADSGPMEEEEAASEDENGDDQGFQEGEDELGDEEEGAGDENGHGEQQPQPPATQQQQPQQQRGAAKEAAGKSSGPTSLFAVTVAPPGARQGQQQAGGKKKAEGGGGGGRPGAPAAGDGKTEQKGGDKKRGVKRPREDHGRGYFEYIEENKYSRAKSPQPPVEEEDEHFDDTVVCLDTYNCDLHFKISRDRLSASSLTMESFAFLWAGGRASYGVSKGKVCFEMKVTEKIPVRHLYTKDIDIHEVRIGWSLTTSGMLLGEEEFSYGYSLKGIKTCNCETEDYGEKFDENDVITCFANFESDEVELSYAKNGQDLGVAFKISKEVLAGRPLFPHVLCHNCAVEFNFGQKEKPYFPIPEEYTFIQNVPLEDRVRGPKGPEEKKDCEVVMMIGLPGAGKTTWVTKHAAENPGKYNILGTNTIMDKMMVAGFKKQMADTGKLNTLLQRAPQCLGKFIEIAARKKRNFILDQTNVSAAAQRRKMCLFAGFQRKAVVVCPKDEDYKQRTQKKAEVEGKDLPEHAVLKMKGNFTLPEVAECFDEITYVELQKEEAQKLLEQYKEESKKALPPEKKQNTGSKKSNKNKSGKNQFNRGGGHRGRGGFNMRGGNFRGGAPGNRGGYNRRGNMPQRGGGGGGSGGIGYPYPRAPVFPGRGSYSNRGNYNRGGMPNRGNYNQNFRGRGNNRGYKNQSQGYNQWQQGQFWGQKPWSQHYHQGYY
UniProt Q9BW72: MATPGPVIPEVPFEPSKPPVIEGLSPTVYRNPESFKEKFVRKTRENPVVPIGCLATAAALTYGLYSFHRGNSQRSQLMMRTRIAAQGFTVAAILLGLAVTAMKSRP

[2] = compound: C=CC(=O)N1CCC[C@@H](n2nc(-c3ccc(Oc4ccccc4)cc3)c3c(N)ncnc32)C1 [ibrutinib]
Method in brief: as §1

[3] = compound: CC(=O)c1cnc2ccc(-c3cc(Cl)c(O)c(Cl)c3)nc2c1N[C@H]1CC[C@H](CN(C)C)CC1
Method in brief: as §1

[4] = compound: CC(C)(O)CC(=O)NCCn1ccc2ncnc(Nc3ccc(Oc4cccc(C(F)(F)F)c4)c(Cl)c3)c21
Method in brief: as §1

[5] = compound: CC(C)N(C[C@H]1O[C@@H](n2cnc3c(N)ncnc32)[C@H](O)[C@@H]1O)[C@H]1C[C@@H](CCc2nc3cc(C(C)(C)C)ccc3[nH]2)C1 [pinometostat]
Method in brief: as §1

[6] = compound: CC1=C(C2=C(C=C1)C(=O)C3=CC=CC=C3N2CCCN)C
Method in brief: as §1

[7] = compound: CC1=C(C=C(C=C1)NC(=O)C2=CC(=CC=C2)C(C)(C)C#N)NC3=CC4=C(C=C3)N=CN(C4=O)C
Method in brief: as §1

[8] = compound: CC1=CC=C(C=C1)SC2=C3C=C(SC3=CN=C2)C(=O)N
Method in brief: as §1

[9] = compound: CC1=NC(=CC=C1)C2=C(N=C(N2)C(C)(C)C)C3=CC4=NC=CN=C4C=C3
Method in brief: as §1

[10] = compound: CCCCN(Cc1ccc(C(=O)NO)cc1)C(=O)Nc1ccccc1 [Nexturastat A]
Method in brief: as §1

[11] = compound: CCCS(=O)(=O)Nc1ccc(F)c(C(=O)c2c[nH]c3ncc(Cl)cc23)c1F
Method in brief: as §1

[12] = compound: CCN(CCCOc1ccc2c(Nc3cc(CC(=O)Nc4cccc(F)c4)[nH]n3)ncnc2c1)CCOP(=O)(O)O [barasertib]
Method in brief: as §1

[13] = compound: CC(C)(C)Cn1c(N)nc2ccc(-c3[nH]c(C(C)(C)C)nc3-c3ccc(F)cc3)nc21 [ralimetinib]
Method in brief: as §1

[14] = compound: CC(C)C1=C2N=C(C=C(N2N=C1)NCC3=CC=CC=C3)NCCCCCCN
Method in brief: as §1

[15] = compound: CC(C)C[C@@H](C=O)NC(=O)[C@H](CC(C)C)NC(=O)[C@H](CC(C)C)NC(=O)OCc1ccccc1
Method in brief: as §1

[16] = compound: CC1=C(C(CC(=O)N1)C2=CC=C(C=C2)C(F)(F)F)C(=O)NC3=C(C=C4C(=C3)C=NN4)F
Method in brief: as §1

[17] = compound: CC1=C(C=C(C=C1)NC(=O)C2=CC(=CC=C2)N(C)C)NC(=O)C3=CC=C(C=C3)O
Method in brief: as §1

[18] = compound: CCCc1cc(C)[nH]c(=O)c1CNC(=O)c1cc(-c2ccnc(N3CCN(C)CC3)c2)cc2c1cnn2C(C)C
Method in brief: as §1

[19] = compound: CCN(CC)Cc1ccc2cc(COC(=O)Nc3ccc(C(=O)NO)cc3)ccc2c1 [givinostat]
Method in brief: as §1

[20] = compound: CCCS(=O)(=O)Nc1ccc(F)c(C(=O)c2c[nH]c3ncc(-c4ccc(Cl)cc4)cc23)c1F [vemurafenib]
Method in brief: as §1

Measured: log2 fold change

HLA-E (UniProt P13747)
inactive: [1] -0.074 | [2] 0.134 | [3] -0.02 | [4] 0.025 | [5] 0.076 | [6] -0.139 | [7] -0.065 | [8] 0.061 | [9] 0.096 | [10] -0.065 | [11] -0.173 | [12] -0.097

HSP90AB3P (UniProt Q58FF7)
inactive: [1] -0.01 | [2] 0.014 | [3] 0.076 | [13] 0.057 | [14] 0.049 | [15] 0.157 | [5] -0.001 | [16] 0.047 | [7] -0.008 | [17] 0.021 | [8] 0.134 | [9] 0.036 | [11] 0.075 | [18] 0.128 | [19] 0.069 | [12] 0.03

HSPA8 (UniProt P11142)
inactive: [1] 0.032 | [2] -0.015 | [3] 0.014 | [13] -0.004 | [4] 0.029 | [14] 0.037 | [15] -0.013 | [5] -0.023 | [6] -0.016 | [7] 0.021 | [17] 0.005 | [8] -0.025 | [9] 0.011 | [10] -0.011 | [20] -0.008 | [11] -0.02 | [18] 0.04 | [19] -0.02 | [12] -0.005

HUWE1, A0A087X1S3
inactive: [1] -0.093 | [2] -0.031 | [4] 0.026 | [14] -0.141 | [5] 0.042 | [6] -0.083 | [7] 0.024 | [9] -0.086 | [10] 0.04 | [19] 0.079 | [12] -0.058

HIGD1A isoform 2 (UniProt Q9Y241)
inactive: [1] -0.132 | [2] 0.1 | [13] -0.004 | [15] 0.231 | [5] 0.019 | [16] -0.064 | [7] -0.054 | [17] 0.094 | [9] 0.036 | [18] 0.052 | [12] 0.085

Reprinted at random: 2 entries already listed.
HLA-E (UniProt P13747)
inactive: [1] -0.074 | [2] 0.134 | [3] -0.02 | [4] 0.025 | [5] 0.076 | [6] -0.139 | [7] -0.065 | [8] 0.061 | [9] 0.096 | [10] -0.065 | [11] -0.173 | [12] -0.097

HUWE1, A0A087X1S3
inactive: [1] -0.093 | [2] -0.031 | [4] 0.026 | [14] -0.141 | [5] 0.042 | [6] -0.083 | [7] 0.024 | [9] -0.086 | [10] 0.04 | [19] 0.079 | [12] -0.058

More entries follow.

HNRNPUL1 (UniProt M0R247)
inactive: [1] 0.041 | [3] -0.259 | [14] 0.121 | [5] -0.025 | [6] 0.008 | [7] -0.059 | [8] -0.148 | [9] -0.075 | [11] -0.15 | [19] 0.001

HP (UniProt P00738)
inactive: [7] -0.603

HMGCS2 (UniProt P54868)
inactive: [7] 0.033

HTR1F (UniProt P30939)
inactive: [1] -0.058 | [3] -0.047 | [14] -0.028 | [5] -0.071 | [9] 0.069 | [19] 0.028

HTD2 (UniProt P86397)
inactive: [2] -0.245 | [3] 0.068 | [4] -0.362 | [14] -0.04 | [7] 0.007 | [8] 0.006 | [10] -0.253 | [20] -0.008 | [11] 0.006 | [18] -0.11 | [19] -0.033 | [12] 0.073

HNMT (UniProt P50135)
inactive: [14] 0.262 | [19] -0.18

HMBS (UniProt F5H0P4)
inactive: [18] 0.148

HUWE1 isoform 2 (UniProt Q7Z6Z7)
inactive: [3] 0.045 | [14] 0.049 | [7] 0.076 | [19] -0.029

HNRNPU isoform 2 (UniProt Q00839)
inactive: [6] -0.331 | [8] -0.002 | [11] 0.151

HMGN5 (UniProt Q5JSK9)
inactive: [2] 0.012 | [3] -0.133 | [13] -0.466 | [4] 0.073 | [14] 0.015 | [15] 0.258 | [6] 0.078 | [7] -0.07 | [17] -0.023 | [8] -0.137 | [10] -0.066 | [20] -0.185 | [11] -0.346 | [18] -0.518 | [19] 0.058 | [12] 0.03

HIGD2A (UniProt Q9BW72)
inactive: [1] -0.046 | [4] -0.061 | [14] -0.051 | [5] 0.187 | [9] 0.044 | [10] 0.181 | [19] -0.006
